Measured values taken from the supplement of paper PMC12823440, “Inhibitors supercharge kinase turnover through native proteolytic circuits” (Nature, 2025).
Counter-ions that a name gives are not always drawn. Some of the results follow. The calls rarely recur for the same compound in another form.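 Kinases were expressed as nanoluciferase fusions in K562 cells and luminescence was read every 4 h between 2 and 18 h as percent of control, DMSO set to 100% and a positive control to 0%. A time point counts as decreased when the signal drops significantly (2 sigma). The hit call is the authors' own, does not follow from the count of time points alone, and its rule is not shown.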

Chains of the proteins cited; added tags and fusions are not shown. Lines headed by an entry give the natural chain unless they say otherwise; changes in a name come on top.
UniProt Q96KB5: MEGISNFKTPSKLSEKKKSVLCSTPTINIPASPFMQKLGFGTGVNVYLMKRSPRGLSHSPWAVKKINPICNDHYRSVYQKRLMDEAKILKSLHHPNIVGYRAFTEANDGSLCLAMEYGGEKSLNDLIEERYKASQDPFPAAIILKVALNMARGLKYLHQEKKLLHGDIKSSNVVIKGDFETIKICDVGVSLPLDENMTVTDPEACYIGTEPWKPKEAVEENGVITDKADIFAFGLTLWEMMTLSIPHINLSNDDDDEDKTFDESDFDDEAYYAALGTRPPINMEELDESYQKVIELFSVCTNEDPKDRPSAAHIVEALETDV

The compounds below were run against PBK (UniProt Q96KB5) (assay: number of time points (of 5) at which kinase-Nluc abundance scored as decreased, DMSO-normalised (count); higher = more persistent destabilization). Details: K562; 2-18 h.

SMILES	number of time points
O=C1C=CC[C@@H]2[C@H]3CCCN4CCC[C@@H](CN12)[C@@H]34 [Sophocarpine] (10 µM)	0
C=CC(=O)N[C@H]1C=C(C)c2c(-c3cnc4ccccc4c3)c3c(N)ncnc3n2C1 (10 µM)	0
Cn1cc(C2=C(c3cn(C4CCN(Cc5ccccn5)CC4)c4ccccc34)C(=O)NC2=O)c2ccccc21 [Enzastaurin] (10 µM)	0
CCN1CCN(C(=O)Cc2ccc(Nc3ncc(F)c(Nc4ccc(C(=O)Nc5ccccc5Cl)cc4)n3)cc2)CC1 (2.5 µM)	0
C[C@H]1CC[C@]2(NC1)O[C@H]1C[C@H]3[C@@H]4CC[C@H]5C[C@@H](O)CC[C@]5(C)[C@H]4CC[C@]3(C)[C@H]1[C@@H]2C [Tomatidine (hydrochloride)] (10 µM)	0
O=[N+]([O-])/C=C/c1ccc2c(c1)OCO2 (2.5 µM)	0
NCCc1cn(S(=O)(=O)c2c(Cl)nc3sccn23)c2ccccc12 (10 µM)	0
COc1ccc(N(C(=O)Oc2c(C)cccc2C)c2ccnc(Nc3ccc(N4CCN(C)CC4)cc3)n2)c(OC)c1 (2.5 µM)	0
Cc1ccccc1-n1c(Cn2cnc3c(N)ncnc32)nc2cccc(C)c2c1=O (10 µM)	0
Cc1[nH]ncc1-c1cc2nc([C@H]3CC4CCN3CC4)[nH]c(=O)c2s1 [(R)-Simurosertib] (10 µM)	0
CC1C(=O)OC2C(O)C34C5OC(=O)C3(OC3OC(=O)C(O)C34C(C(C)(C)C)C5O)C12O (stereo unspecified) [Ginkgolide C] (10 µM)	0

Three entries already listed, arranged by molecular weight, descending.
SMILES	number of time points
Cc1ccccc1-n1c(Cn2cnc3c(N)ncnc32)nc2cccc(C)c2c1=O (10 µM)	0
C=CC(=O)N[C@H]1C=C(C)c2c(-c3cnc4ccccc4c3)c3c(N)ncnc3n2C1 (10 µM)	0
NCCc1cn(S(=O)(=O)c2c(Cl)nc3sccn23)c2ccccc12 (10 µM)	0
